This is one part of the list. Shown are side measurements of this screen, not its main read-out; they come without a call. Most of these compounds were active or inconclusive in the main read-out, so they are no random draw. The note in brackets gives the kind of curve behind each potency; many fits are weak.
Assay: qHTS Assay for Lipid Storage Modulators in Drosophila S3 Cells;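 on cell number change: cells counted by Cell Tracker Red CMTPX staining in the red channel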
Conditions: BODIPY lipid droplet fluorescence, 18-24 h; for cell number change: measured here: cell count max response, cells fed with added oleic acid
In short: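 Laser-scanning cytometry quantifies lipid droplet accumulation (500–530 nm total intensity; droplet/cell object ratio) in oleic acid-fed (400 uM added) Drosophila S3 cells treated with a concentration series. 20 uM Triacsin C defined 100% inhibition.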

[1] = measured here: cell number channel AC50, cells fed with added oleic acid
[2] = measured here: lipid fluorescence (Fed channel) AC50, cells fed with added oleic acid

Structure (SMILES)	cell number change [%]	AC50 [1]	AC50 [2]
CCOc1ccccc1NC(=O)C(=O)NCC1CCCN1CC (stereo not given)	-20.4		
COc1ccc(OCc2ccc(C(=O)NN)cc2)cc1	15.4		
CCCCC(O)(C(NC=O)C(=O)OC)C(F)(F)F (stereo not given)		6.51 µM [falling, single point]	
CCc1cccc(OCCCCNCCO)c1	-32.2	0.164 µM [falling, full curve]	0.82 µM [falling, full curve]
CCOc1ccc(NC(=O)CN(C)C(=O)Cn2cnc3c2c(=O)n(C)c(=O)n3C)cc1OCC		6.51 µM [falling, single point]	29.1 µM [rising, single point]
C(=N\N1CCN(c2ccccn2)CC1)/c1cccc2ccccc12	10.6		1.84 µM [rising, partial curve, poor fit]
O=C1CN(C(=S)Nc2ccc(OC(F)F)cc2)CCN1	1.04	1.46 µM [falling, partial curve, poor fit]	
COC(=O)C1=C(C)OC(N)=C(C#N)C1c1cc(C)sc1C (stereo not given)	-2.56		0.58 µM [rising, single point]
CCCCc1nc(SCCN2CCOCC2)c2c(=O)n(C)c(=O)n(C)c2n1		6.51 µM [rising, partial curve, poor fit]	
O=C(c1ccc(N2C(=O)C3C4CC(C(Br)C4Br)C3C2=O)cc1)N1CCCCC1 (stereo not given)	-10.5		
COCCCn1c(Cc2csc(Nc3cccc(Cl)c3)n2)nnc1SCC(=O)OC1CCCCC1	-27.7		32.6 µM [falling, partial curve, poor fit]
Cc1cccc(CSc2nc3ccccc3c(=O)n2C)c1	-23.5		0.731 µM [falling, full curve, poor fit]
Cc1cc(NC(=O)CN2CCN(C)CC2)no1	-25.2		
NS(=O)(=O)c1ccc(CCNC(=O)CN2C(=O)COc3ccc(S(=O)(=O)N4CCCC4)cc32)cc1	12.2		29.1 µM [rising, single point]
CCn1ncc(Cl)c1C(=O)NC(=S)Nc1ccccc1Br	-7.23	0.0731 µM [rising, full curve, poor fit]	0.326 µM [falling, full curve, poor fit]
CCCn1cnnc1CNC(=O)C1CCC(=O)N(CCCc2ccccc2)C1 (stereo not given)	-17.9		16.4 µM [falling, single point]
NS(=O)(=O)c1ccc(CCNC(=O)COC(=O)CCN2C(=O)C3CC=CCC3C2=O)cc1 (stereo not given)	-15.5		20.6 µM [rising, single point]
Cc1nc2ccc(NC(=O)c3cc(S(=O)(=O)N(C)c4ccccc4)ccc3Cl)cc2s1	4.57		1.84 µM [rising, partial curve, poor fit]
Cc1cc(C(=O)OCC(=O)Nc2ccc(S(=O)(=O)N3CCOCC3)cc2)c(C)o1	-23.1		
O=C(NCc1ccccc1)c1onc(CSc2ccc(F)cc2)c1C(=O)NCCCN1CCOCC1	-6.28	1.84 µM [rising, partial curve]	
COc1ccc(S(=O)(=O)NC2CCCCC2)cc1C(=O)N1CCCCC1			4.11 µM [rising, full curve, poor fit]
CCCN1C(=O)/C(=C/c2ccc(C)o2)NC1=S	-3.33		

Structure (SMILES)	cell number change [%]	AC50 [1]	AC50 [2]
CCc1ccc(-c2csc3ncn(Cc4ccc(C(=O)O)cc4)c(=O)c23)cc1	-49.4	29.1 µM [falling, single point]	
CC(C)c1ncc(C(O)c2cccc3ccccc23)n1C (stereo not given)	8.98		29.1 µM [falling, single point]
CCN1C(=NCCCCO)N[C@@H](c2cccc(F)c2)C(C(=O)OC)=C1C	22.7		
CC(=O)c1ccc(C(=O)N2CCCC(Nc3ccccc3)C2)s1 (stereo not given)			29.1 µM [rising, single point]
COc1cccc(/C(O)=C/c2nc3ccc(C(=O)NCCc4cccc(C)c4)cc3[nH]c2=O)c1	5.39		18.4 µM [falling, single point]
CC(/C=N/n1c(-c2ccc(Cl)cc2)n[nH]c1=S)=C\c1ccco1	-58.6	13 µM [falling, partial curve]	13 µM [falling, partial curve]
C=C(C)C(=O)Nc1cccc(C(C)=O)c1	35.8	0.0231 µM [rising, full curve, poor fit]	
Cc1cccc(-c2csc(N)c2C(=O)OC(C)C)c1	-58.5	18.4 µM [falling, single point]	16.4 µM [falling, single point]
CN1C(=O)C(C)(C)c2cc(S(=O)(=O)NCC(=O)NCc3ccccc3)ccc21	-29.1		
CCCCCNC(=O)C(C)NS(=O)(=O)c1ccc(OC)cc1 (stereo not given)	-20.1	0.103 µM [falling, full curve, poor fit]	
Cc1ccc(NC(=O)c2ccccc2)cc1C	-12.1		6.51 µM [falling, single point]
CCSc1nnc2c3cc(CC)ccc3n(C)c2n1	13.2		29.1 µM [falling, single point]
CCOC(=O)c1sc(NC(=O)CN(CC)CC)c(C(=O)OCC)c1C	13.7	0.13 µM [rising, full curve, poor fit]	0.58 µM [rising, single point]
COc1cccc(-c2cccc(NC(=O)C3CCN(Cc4ccon4)CC3)c2)c1	-4.72		0.58 µM [falling, single point]
O=C(COc1nsnc1N1CCOCC1)Nc1ccc(Br)cc1	-19		
CCOc1ccc(OCC(=O)Nc2ccc(OC)cc2[N+](=O)[O-])cc1	-6.8		20.6 µM [falling, single point]
CCOC(=O)c1[nH]c(C)c(C(=O)Nc2cc(Cl)ccc2C)c1C		0.116 µM [rising, full curve, poor fit]	
O=C(COC(=O)c1ccc(O)cc1)NC1CCCCCC1	16.6		3.66 µM [rising, full curve]
N#Cc1cc(N2CCOCC2)nc2ccccc12	25.9		
CC(C)C(NC(=O)c1ccccc1)c1nnc(SCC(=O)Nc2nccs2)n1C (stereo not given)	4.06		0.13 µM [rising, full curve, poor fit]
O=C1CC(c2ccc3ccccc3c2)NN1 (stereo not given)	3.82		
Brc1ccc(-c2nn3c(-c4ccco4)nnc3s2)o1	-9.24		1.84 µM [rising, single point]

Gathered by group: those above containing an NH in an aromatic ring (3)
Structure (SMILES)	cell number change [%]	AC50 [1]	AC50 [2]
COc1cccc(/C(O)=C/c2nc3ccc(C(=O)NCCc4cccc(C)c4)cc3[nH]c2=O)c1	5.39		18.4 µM [falling, single point]
CC(/C=N/n1c(-c2ccc(Cl)cc2)n[nH]c1=S)=C\c1ccco1	-58.6	13 µM [falling, partial curve]	13 µM [falling, partial curve]
CCOC(=O)c1[nH]c(C)c(C(=O)Nc2cc(Cl)ccc2C)c1C		0.116 µM [rising, full curve, poor fit]	

The listing continues.

Structure (SMILES)	cell number change [%]	AC50 [1]	AC50 [2]
COc1ccc(NC(=O)CC2C(=O)N(CCc3ccccc3)C(=S)N2Cc2cccnc2)cc1 (stereo not given)	-10.9		0.411 µM [falling, full curve, poor fit]
CCc1cc(=O)oc2cc(C)c3c(C)coc3c12	-6.95		4.11 µM [falling, full curve, poor fit]
COc1ccc(OC)c(S(=O)(=O)NC(N)=NCCc2ccccc2OC)c1			5.8 µM [rising, single point]
Cc1ccc(-c2nc(=O)[nH]c3ccc(Br)cc23)cc1	-27.2		9.2 µM [falling, partial curve]
Cc1cccc(-c2nnc(SCC3CNC(=O)O3)n2-c2ccc(Cl)cc2)c1 (stereo not given)	-0.701		6.51 µM [rising, single point]
O=C(NCCc1nnc2ccc(NCC3CCCO3)nn12)c1ccccc1 (stereo not given)		1.16 µM [falling, full curve, poor fit]	
COc1ccc2c(C)cc(SCC(=O)Nc3c(C)n(C)n(-c4ccccc4)c3=O)nc2c1	-14.6		
COc1ccc(NS(=O)(=O)c2cccc(Cl)c2)cc1S(=O)(=O)N1CCCCC1	-51.4	29.1 µM [falling, single point]	
Cc1cc2c(c(=O)n1Cc1ccccc1)C1O[C@](c3ccsc3)(Cc3ccccc31)O2	27.2		5.96 µM [falling, single point]
COc1ccc(C(=O)OCC(=O)NC2CCCCCC2)c(OC)c1	16.2		2.91 µM [rising, full curve]
COCc1cc(/C=N\NC(=O)Cc2ccc(Cl)cc2)ccc1OC		3.66 µM [rising, partial curve]	29.1 µM [rising, single point]
CCn1nc(NC(=O)c2ccncc2)c2cc3ccccc3nc21	7.82		6.51 µM [rising, single point]
Cn1c(C(=O)N2CCCc3ccccc32)cc2c(=O)n3ccccc3nc21	-4.58		
O=C(CSc1nc2ccccc2s1)NCc1ccc2c(c1)OCO2	26.6		0.651 µM [rising, partial curve]
Nc1ccncc1N	-32	0.82 µM [falling, full curve, poor fit]	13 µM [falling, partial curve]
Cc1ccc(CS(=O)(=O)c2cn(CC(=O)Nc3ccon3)c3ccccc23)cc1		0.231 µM [rising, full curve, poor fit]	0.326 µM [rising, full curve]
O=C(NC(CO)(CO)CO)[C@@H]1CCCN1S(=O)(=O)c1cccc2cccnc12	23.4		7.31 µM [rising, partial curve, poor fit]
Nc1c(Cl)ncnc1N/N=C/c1ccncc1	12.8		18.4 µM [rising, single point]
CN(C)CCCNc1ncnc2c1cnn2-c1ccccc1	7		6.51 µM [rising, single point]
CC(C)C(=O)Nc1cc(=O)[nH]c2ncnn12			29.1 µM [falling, single point]
Cc1ccccc1-n1c(-c2ccncc2)n[nH]c1=S	-2.43		29.1 µM [rising, single point]
